For some assays here: At least one read-out could not be matched to a standard name with certainty. For some assays here: At least one structure is not confirmed: it was looked up by name or label, or the drawing left a doubt.
Experiments:
[1] = Stability after dilution of prepared freeze-dried powder in physiological saline; assay type: physicochemical; details: in 16% HP-beta-cyclodextrin
Procedure: Hydroxypropyl beta-cyclodextrin (HP-beta-cyclodextrin) was dissolved in distilled water for injection under stirring at room temperature and heated to 60° C., and the compound of formula 1 was added thereto, stirred and enclosed therein. The liquid injection was sterilized and filtered through 0.22 μm filter paper. The filtered injection solution was filled into a glass vial, cooled at −80° C., and freeze-dried to commercialize.

[2] = system: Methicillin-resistant Staphylococcus aureus (MRSA) strains; assay: Drug susceptibility (MIC) of MRSA clinical isolates; assay type: cell-based; design: unit not given beside the values; details: n = 100
Procedure: In order to verify the inhibitory effect of the compound of formula 1 on antibiotic-resistant strains, drug susceptibility was evaluated by treating the compound of formula 1 with Staphylococcus aureus phenotype isolated from each patient. In an in vitro test for antibiotic development, the most important result can be MIC90 (minimum inhibitory concentration required to inhibit the growth of 90% of the total bacterial population). […] Appelbaum at Hershey Hospital who is recognized for its authority in the field of anti-infection worldwide.

SMILES | improved solubility compared to water solubility (2.5 μg/mL) [1] | MIC Range [2]
Cc1c(N)cccc1Cn1ccc(OCCc2cccs2)cc1=O [Compound of formula 1, 1-(3-amino-2-methylbenzyl)-4-(2-thiophen-2-yl-ethoxy)-1H-pyridin-2-one] | about 1200 times | 
C[C@H]1COc2c(N3CCN(C)CC3)c(F)cc3c(=O)c(C(=O)O)cn1c23 [Levofloxacin] |  | 0.125->32.0

From patent publication US20220031607A1, “INJECTION COMPOSITION CONTAINING FAB I INHIBITOR, AND PREPARATION METHOD THEREFOR” (CRYSTALGENOMICS, INC., priority 2019, published 2022)
